Each structure is given as a SMILES string.

The data set in a line: Odour description.
As to `Cc1cccc(C(C#N)=C2CCCCC2)c1` [Example 4, Cyclohexylidene-m-tolyl-acetonitrile, reference compound], the Odour description entry is listed as “floral, citrus”.
The same measure for `Cc1ccccc1C(C#N)=C1CCCCC1` [Example 1, Cyclohexylidene-o-tolyl-acetonitrile]: “fruity, rosy, Lychee, Palmarosa, Rosacetol”.
The same measure for `COc1ccccc1C(C#N)=C1CCCCC1` [Example 5, Cyclohexylidene-(2-methoxy-phenyl)-acetonitrile]: “floral, rosy, sweet, citronellol”; for `Cc1ccccc1C(C#N)=C1CCCC1` [Example 3, Cyclopentylidene-o-tolyl-acetonitrile]: “floral, citrus”.
For `Cc1ccc(C(C#N)=C2CCCCC2)cc1` [Example 2, Cyclohexylidene-p-tolyl-acetonitrile, reference compound], the Odour description result was “floral, rosy, sweet, vanilla”.
As for `Cc1ccccc1C(C#N)=C1CCCCC1C` (mixture of isomers) [Example 6, (E/Z)-2-(2-methylcyclohexylidene)-2-o-tolylacetonitrile], the Odour description result is on record as “balsamic, sweet, cinnamic, plum”.

The record behind these values is US7655701B2, “Cycloalkylidene-(ortho substituted phenyl)-acetonitriles and their use as odorants” (Givaudan SA, priority 2005, dated 2010).
